{"source": "PubChem BioAssay (Tox21)", "note": "Inconclusive results, whose numbers are uncertain, are shown. Potencies of inconclusive entries are doubtful fits and often do not repeat. Where a structure was tested more than once in an assay, its records may differ in their call. Potency is read from the fitted curve at half-maximal effect."}
{"experiment": "cAMP Responsive Elements (CRE) small molecule agonists, cell-based qHTS assay: qHTS cell viability counter screen (AID 2060914); also: nearly all actives have a fitted effect of over 50% in size", "details": "CRE-bla HEK293T viability, CellTiter-Glo luminescence, 5 h; series mostly up to 92.4 µM; active = well fitted cell-killing curve with a large enough effect in the repeat runs; inconclusive = weak or mixed curves, or effect the other way; inactive = flat fitted curve, though single readings scatter", "outline": "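Cytotoxicity was measured as ATP luminescence (CellTiter-Glo, 30 min at room temperature) in the same wells as the CRE-bla FRET read-out. HEK293T CRE-bla cells had 3 h compound exposure at 37C/5% CO2.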"}
{"smiles": "ClCCCN1CCN(c2cccc(Cl)c2)CC1", "Potency": "inconclusive: 33.5 µM [cytotoxic, single point]"}
{"smiles": "CC(C)NC(=O)N1CC(=O)N(c2cc(Cl)cc(Cl)c2)C1=O", "Potency": "inconclusive: 13.7 µM [cytotoxic, single point]"}
{"smiles": "Nc1nc(N)nc(NC2CC2)n1", "Potency": "inconclusive: 68.9 µM [rising, single point]"}
{"smiles": "CCC1(c2ccc(N)cc2)CCC(=O)NC1=O", "note": "(centres undefined)", "Potency": "inconclusive: 33.5 µM [cytotoxic, single point]"}
